At least one read-out could not be matched to a standard name with certainty.
Test system: Parkinson's Disease Model in Mouse
Assay: Effect on locomotor activity of Parkinson's disease model in mouse (MPTP-treated mice, Automex-II horizontal activity)
Format: in vivo, male C57BL/6 mice
Procedure: 1-Methyl-4-phenyl-1,2,3,6-tetrahydropyridine (MPTP) causes symptoms of Parkinson's disease in humans [Science, 219, 979 (1983)]. It is reported that an experimental Parkinson's disease model was obtained by administering MPTP to mice [Science, 224, 1451 (1984)]. If a compound is effective on the experimental Parkinson's disease model in mouse, the compound can be expected to have a therapeutic effect on Parkinson's disease.
The experiment was performed by using several groups of 7-weeks-old male C57BL/6 mice (weighing 20 to 21 g, Japan SLC), each group consisting of 8 mice. MPTP (Aldrich Chemical Co., Inc.) dissolved in a physiological saline solution (Otsuka Pharmaceutical Co., Ltd.) was intraperitoneally administered to each mouse once a day for five consecutive days at a dose of 30 mg/kg. A test compound was suspended in injectable distilled water (Otsuka Phamaceutical Co., Ltd.) containing Tween 80 [polyoxyethylene (20) sorbitan monooleate]. L-DOPA (Kyowa Hakko Kogyo Co., Ltd.) was suspended in 0.3% CMC (sodium carboxylmethylcellulose). Thirty minutes after the final MPTP administration, the test compound suspensions and the control suspension [injectable distilled water (Otsuka Pharmaceutical Co., Ltd.) containing Tween 80] containing no test compound were orally administered to separate groups of the mice (0.1 ml per 10 g of body weight). The amount of active movements (horizontal activity) of each mouse was measured by using Automex-II (Columbus Instruments International Corp.) for the period of 30 minutes starting 30 minutes after the administration of the test compound. The effect of the compounds was evaluated by comparing the average counts of the active movements of the test compound-administered groups with those of the control groups. A significant difference test was performed by using Student's t-test.

[1] = Table 3-3, test compound 10 mg/kg orally, normal control 2255 ±203.1, MPTP control 17 ± 4.9
[2] = Table 3-4, test compound 40 mg/kg orally, normal control 2032 ±167.4, MPTP control 55 ± 16.8

C=CCn1c(=O)c2c(nc(/C=C/c3cc(OC)c(OC)c(OC)c3)n2C)n(CC=C)c1=O [Compound 7, (E)-1,3-diallyl-7-methyl-8-(3,4,5-trimethoxystyryl)xanthine]
Amount of Active Movements (average count ± S.E.M) [1]: 78 ± 48.3 count
Amount of Active Movements (average count ± S.E.M) [2]: 310 ±119.5 count

CCCn1c(=O)c2c(nc(/C=C/c3cc(OC)c(OC)c(OC)c3)n2C)n(CCC)c1=O [Compound 5, (E)-7-methyl-1,3-dipropyl-8-(3,4,5-trimethoxystyryl)xanthine]
Amount of Active Movements (average count ± S.E.M) [1]: 24 ± 6.5 count
Amount of Active Movements (average count ± S.E.M) [2]: 217 ± 84.2 count

CCCn1c(=O)c2c(nc(/C=C/c3ccc(OC)cc3)n2C)n(CCC)c1=O [Compound 6, (E)-8-(4-methoxystyryl)-7-methyl-1,3-dipropylxanthine]
Amount of Active Movements (average count ± S.E.M) [1]: 34 ± 12.1 count
Amount of Active Movements (average count ± S.E.M) [2]: 458 ±153.7 count

Source: patent EP0565377B1, “Therapeutic agents for use in the treatment of Parkinson's Disease” (Kyowa Hakko Kogyo Co., Ltd., priority 1992, dated 1993)
